Consider 64 compounds from PubChem BioAssay AID2685 (National Center for Advancing Translational Sciences (NCATS), 2010).

Some of the results follow. Further columns of the screen follow, without active or inactive calls. Most of these compounds were active or inconclusive in the main read-out, so they are no random draw. Potencies come from curve fits of mixed quality, noted in brackets.

A short description of this assay: qHTS Assay for Lipid Storage Modulators in Drosophila S3 Cells.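 On cell number change: cells counted by Cell Tracker Red CMTPX staining in the red channel.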 The settings on record: BODIPY lipid droplet fluorescence, 18-24 h; for cell number change: measured here: cell count max response, cells fed with added oleic acid. The essentials: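 Laser-scanning cytometry quantifies lipid droplet accumulation (500–530 nm total intensity; droplet/cell object ratio) in oleic acid-fed (400 uM added) Drosophila S3 cells treated with a concentration series. 20 uM Triacsin C defined 100% inhibition.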

Where [1] appears, read: measured here: cell number channel AC50, cells fed with added oleic acid.
Where [2] appears, read: measured here: lipid fluorescence (Fed channel) AC50, cells fed with added oleic acid.

As to `CCOc1ccc(CCNC(=O)c2ccc(C)c(N3CCCC3=O)c2)cc1OCC`, the cell number change was -60.4%. Also, the AC50 under setting [1] was 517 nM [falling, full curve, poor fit]. Further, the AC50 under setting [2] was 580 nM [falling, full curve].

Consider `CC1=C(C(=O)OCc2ccccc2)C(c2cccc3ccccc23)NC(=O)N1CCCC(=O)O` (stereo unspecified), for which the cell number change came out at 21.8%. The AC50 under setting [2] is 10300 nM [rising, partial curve, poor fit].

For `O=C(CNCc1ccc(F)cc1)Nc1ccc(C(=O)N2CCCCC2)cc1`, the cell number change amounted to 33.8%.

`O=C(O)CC12CC3CC(C1)CC(n1ncc(NCc4ccc(F)cc4)c(Cl)c1=O)(C3)C2`: the cell number change is 12.3%. In addition, under setting [2], the AC50 was 731 nM [rising, single point].

Regarding `S=C(NCc1ccco1)Nc1ccc(Cl)c(Cl)c1`, the cell number change is -12.6%. Further, the AC50 under setting [2] is 6510 nM [falling, full curve].

For `CCN(CC)S(=O)(=O)c1ccc(C(=O)N(c2ccc(C)cc2)C2C=CS(=O)(=O)C2)cc1` (stereo unspecified), the cell number change amounted to 1.22%. Moreover, under setting [2], the AC50 is 32600 nM [rising, single point].

For `COc1ccc(C(=O)Nc2ccccc2C(=O)N2CCCCC2C)cc1` (stereo unspecified), the cell number change was -18.2%.

For `Cc1cc(O)c(C(C)C)cc1NC(=O)c1ccc(Cl)cc1`, the cell number change was -45%. Moreover, the AC50 under setting [1] was 92 nM [falling, full curve]. Moreover, the AC50 under setting [2] was 731 nM [falling, full curve].

For `C=CCN(c1ccc(C(=O)Nc2ccc(NC(C)=O)cc2)cc1)S(C)(=O)=O`, the cell number change stood at 5.74%. Also, the AC50 under setting [2] is 517 nM [falling, single point].

Consider `COc1ccc2cc(CN(CCO)C(=O)c3ccc(Br)cc3)c(=O)[nH]c2c1`, for which the cell number change is -12%. The AC50 under setting [2] was 29100 nM [rising, single point].

As for `N#Cc1ccc(COc2cccnc2[N+](=O)[O-])cc1`, the cell number change came out at 24.4%.

Regarding `CC1=NN(c2ccccc2)C(=O)/C1=C/c1cc(C)n(C2CC2)c1C`, the AC50 under setting [1] was 820 nM [rising, single point] and the AC50 under setting [2] is 651 nM [rising, single point].

On to `CNCCCOc1ccc(C)cc1Br`, for which the AC50 under setting [2] was 651 nM [falling, single point].

As to `Cc1nn(-c2ccc(C(=O)NCC(c3ccco3)N3CCCC3)cc2)c(C)c1Cl` (stereo unspecified), the cell number change is -9.42%. Also, under setting [2], the AC50 was 1030 nM [falling, full curve].

With `COc1ccc(-c2cn3c(C)c(C(=O)N4CCN(c5ccc(F)cc5)CC4)sc3n2)cc1`, the cell number change is 15.2%. For the same compound, the AC50 under setting [2] is 36.6 nM [rising, full curve, poor fit].

For `COc1ccc(N(CC(=O)NCCSCc2cccc(Cl)c2)S(C)(=O)=O)cc1Cl`, the cell number change was -23.7%. Moreover, the concentration at half-maximal activity (AC50) under setting [2] is 29100 nM [falling, single point].

On to `O=C(NCc1ccc(F)cc1)C1CCCN1C(=O)Nc1ccccc1` (stereo unspecified), for which the cell number change came to 3.41%. Besides, the AC50 under setting [2] is 1460 nM [falling, full curve, poor fit].

Consider `COc1cc(OC)cc(C(=O)NC(=S)NCCc2ccccc2)c1`, for which the cell number change is -14.1%.

Regarding `COc1cccc(NC(=O)c2cc(CN3C(=O)c4ccccc4C3=O)ccc2OC)c1`, the AC50 under setting [2] was 2590 nM [rising, full curve].

In the case of `Cc1cc(/C=C2\SC(N)=NC2=O)c(C)n1-c1ccccc1`, the cell number change is 15.6%. The AC50 under setting [2] is 4110 nM [falling, partial curve, poor fit].

In the case of `Cc1ccc2nc(Cl)nc(-c3ccccc3)c2c1`, the cell number change amounted to 14.3%. Also, the AC50 under setting [2] is 10.3 nM [rising, full curve, poor fit].

Regarding `CC(NC(=O)CN1C(=O)NC2(CCCC2)C1=O)c1ccc2ccccc2c1` (stereo unspecified), the cell number change was -3.4%. Further, the AC50 under setting [2] was 517 nM [falling, single point].

With `O=C(c1ccc(S(=O)(=O)Nc2ccc(F)cc2)cc1)N1CCN(c2ccccn2)CC1`, the cell number change was -5.87%.

As to `CCOC(=O)c1cccc(N2C(=O)c3ccccc3S2(=O)=O)c1`, the cell number change is -15.6%. Also, the AC50 under setting [2] was 25900 nM [rising, single point].

As for `CCOc1ccc(Cl)cc1C(c1c(C)[nH][nH]c1=O)c1c(C)[nH][nH]c1=O`, the cell number change was -8.24%. For the same compound, the AC50 under setting [2] was 6510 nM [rising, single point].

For the compound `COc1ccc(CCc2nnc(N)s2)cc1OC`, the cell number change was -19.9%.

In the case of `Nc1nc(N)nc(-c2ccc(Cl)cc2)n1`, the cell number change is -3.44%.

As to `O=C(CCSCc1ccccc1Cl)N1CCN(c2ccccn2)CC1`, the cell number change was -6.71%. The AC50 under setting [1] was 461 nM [rising, full curve, poor fit].

On to `O=C(COC(=O)COc1ccc(Cl)cc1)NC1CCCC1`, for which the cell number change was found to be 11.7%. Besides, under setting [2], the AC50 was 4610 nM [rising, partial curve].

As for `Cc1sc2ncnc(NCC3COc4ccccc4O3)c2c1C` (stereo unspecified), the cell number change is -38.4%. Further, the AC50 under setting [1] was 4610 nM [falling, full curve, poor fit]. Moreover, under setting [2], the AC50 was 2060 nM [falling, full curve].

Turning to `CS(=O)c1nc(-c2ccc(Br)cc2)cc(-c2ccccc2)c1C#N` (stereo unspecified), the cell number change is -25.4%.

Take `CN1CCN(c2ccc(NC(=O)c3sc4ccccc4c3Cl)cc2)CC1`: the cell number change came out at 20.6%.

Turning to `O=C(NCCS(=O)(=O)N1CCCCCC1)c1ccc(F)cc1`, the cell number change is -4.18%. The concentration at half-maximal activity (AC50) under setting [2] is 6510 nM [falling, single point].

On to `O=C(Nc1ccccc1)n1ccc(-c2ccc(-n3ccnc3)cc2)n1`, for which the cell number change is -20.8%. Moreover, under setting [2], the AC50 is 29100 nM [falling, single point].

As for `O=C(Nc1ccccc1F)C(=O)Nc1cccc2ccccc12`, the cell number change stood at 8.8%.

Turning to `O=C(c1ccc2ccccc2n1)N1CCN(c2ccccc2O)CC1`, the cell number change was -54%. Moreover, the AC50 under setting [2] is 29100 nM [rising, single point].

With `COc1cc(C(C)=O)ccc1OCC(O)CN(CCO)Cc1ccccc1` (stereo unspecified), the cell number change worked out at 55.5%.

As to `O=C(Nc1nc(-c2cccs2)cs1)c1ccc(S(=O)(=O)N2CCCC2)cc1`, the cell number change was -21.5%. Moreover, the AC50 under setting [1] is 517 nM [falling, full curve, poor fit].

Take `COc1ccc2[nH]c(=O)c(CN(C)C(=O)C3CCCCC3)cc2c1`: the cell number change was -23.2%. Also, the AC50 under setting [1] is 4.11 nM [falling, full curve, poor fit]. Besides, under setting [2], the AC50 was 2310 nM [rising, single point].

As for `CCOc1ccccc1NC(=O)CSc1nc2ccccc2nc1N1CCOCC1`, the cell number change was -2.02%. For the same compound, the AC50 under setting [2] is 6510 nM [rising, partial curve, poor fit].

On to `COc1ccc(NC(=O)c2cc(Cl)ccc2NC(=O)c2ccco2)c(OC)c1`, for which the AC50 is 1640 nM [rising, partial curve] under setting [1] and 23100 nM [rising, partial curve] under setting [2].

In the case of `CN(C)C1=NC[C@H](Cc2ccccc2)N1CCc1cccc(F)c1`, the cell number change is 11.9%. In addition, the AC50 under setting [2] is 3260 nM [falling, partial curve].

On to `COCCn1c(C)cc(C(=O)COC(=O)CCc2ccc(S(=O)(=O)N3CCOCC3)cc2)c1C`, for which the cell number change is 12.8%. Further, the AC50 under setting [1] was 1300 nM [rising, full curve, poor fit].

Consider `COc1ccc(-c2noc(-c3ccccc3C(=O)N3CCOCC3)n2)cc1`, for which, under setting [2], the AC50 is 6510 nM [falling, single point].

As to `COc1ccc2c(c1)O[C@H](c1ccc3c(c1)OCO3)[C@@H](OC(=O)N[C@H]1CCCc3ccccc31)C2=O`, the cell number change amounted to 12.4%. Further, under setting [2], the AC50 was 1300 nM [rising, partial curve].

As for `CCC(=O)Nc1ccc(N2CCN(Cc3ccccc3)CC2)cc1`, the cell number change was -8.01%. Further, the AC50 under setting [1] is 651 nM [falling, single point]. Further, the AC50 under setting [2] was 20600 nM [rising, single point].

As for `CCc1ccc(NC(=O)CSc2nc3nc(C)cc(C)n3n2)cc1`, the cell number change was -41.3%. In addition, the AC50 under setting [1] was 29100 nM [falling, single point]. Moreover, the AC50 under setting [2] is 29100 nM [falling, single point].

`Cc1ccc(S(=O)(=O)N2CCN(C(=O)Cc3sc(C)nc3-c3ccc(F)cc3)CC2)c(C)c1`: the cell number change was 45%. In addition, the AC50 under setting [1] was 5800 nM [rising, partial curve]. Moreover, the AC50 under setting [2] is 11600 nM [rising, partial curve].

For `Cc1nc(C)c(-c2ccc(SCc3ccccc3C)nn2)s1`, the cell number change is -12.8%. Moreover, the AC50 under setting [2] is 3260 nM [rising, single point].

Take `COc1cc(/C=C/C(C)=O)cc(OC)c1OC`: the cell number change was 27.4%.

In the case of `CCCN(CCC)C(=O)c1ccc2c(c1)S(=O)(=O)c1ccccc1C2=O`, the cell number change was -23.3%.

`O=C1Nc2ccccc2/C1=N/N=C/c1ccc(-c2ccc([N+](=O)[O-])cc2)o1`: the cell number change worked out at 2.64%. Besides, the AC50 under setting [2] was 146 nM [rising, partial curve, poor fit].

With `Cc1nc2ccc(NC(=O)c3ccc([N+](=O)[O-])cc3)cc2[nH]1`, the cell number change was -14.4%. The AC50 under setting [2] is 18400 nM [falling, single point].

On to `O=C(CN1C(=O)NC2(CCCC2)C1=O)OCc1ccc(Br)cc1`, for which the cell number change turned out to be 66%.

On to `CN(CC(=O)Nc1ccc(F)cc1)C(=O)c1ccccc1Sc1ccccc1C#N`, for which the cell number change was found to be 7.74%.

As for `COc1ccccc1N1CCN(C(=O)CC(NC(=O)c2ccccc2Cl)c2ccccc2)CC1` (stereo unspecified), the cell number change was found to be 37.8%.

`CCSC1=C(C#N)C(c2cccc(O)c2)CC(=O)N1` (stereo unspecified): the cell number change was found to be 11%. Further, under setting [2], the AC50 is 1460 nM [rising, partial curve, poor fit].

Consider `OCCC1CN(Cc2cccn2-c2nccs2)CCN1CCc1ccccc1` (stereo unspecified), for which the cell number change was -1.54%. Moreover, under setting [2], the AC50 was 1840 nM [rising, partial curve, poor fit].

Regarding `CCOc1ccc(CCNC(=O)COC(=O)c2c(OC)cccc2OC)cc1OCC`, the cell number change is -47.9%. Further, under setting [1], the AC50 was 32600 nM [falling, partial curve, poor fit]. Under setting [2], the AC50 was 14600 nM [falling, partial curve, poor fit].

Turning to `O=C(CSc1ccccn1)Nc1ccccc1F`, the cell number change is -7.75%. The concentration at half-maximal activity (AC50) under setting [2] was 58 nM [falling, full curve, poor fit].

Take `CC(=O)CCC(=O)c1ccc2ccccc2c1`: the cell number change stood at 18.2%. The AC50 under setting [2] is 20600 nM [rising, partial curve].

Take `CN(C)c1nc(C(=O)Nc2ccccc2)nc(N(C)C)n1`: the cell number change was 1.09%. Under setting [2], the AC50 was 8200 nM [rising, partial curve].

Consider `CCOC(=O)c1c(NC(C)=O)sc(C(=O)NC2CCCC2)c1C`, for which the cell number change amounted to 11.8%. The AC50 under setting [1] is 32.6 nM [rising, full curve, poor fit].

For `CCOc1ccc(C(=O)COC(=O)c2cc([N+](=O)[O-])ccc2N2CCOCC2)cc1`, the cell number change came to 5.77%.
